Source: patent US8084644B2, “Iminopropene compound and use thereof” (Sumitomo Chemical Company, Limited, priority 2005, dated 2011)
Some results were stated once for a whole list of compounds, not compound by compound. Some compounds share one range, which may span the group rather than tell each member.

How the values were obtained:
Format in all cases: in vivo
[1] = test system: Blattalla germanica; experiment: Test Example 6: filter paper test on German cockroach; conditions: 500 ppm, male adult German cockroach, after 6 days
[2] = test system: Plutella xylostella; experiment: Test Example 9: cabbage test on diamondback, second-instar; conditions: 500 ppm, 25° C., after five days
[3] = test system: Musca domestica; experiment: Test Example 5: filter paper test on houseflies; conditions: 500 ppm, female adult houseflies, after 24 hours
[4] = test system: Adoxophyes orana; experiment: Test Example 2: artificial diet test on summer fruit tortrix larvae; conditions: 500 ppm, first-instar larvae, after 7 days
[5] = test system: Culex pipiens pallens; experiment: Test Example 7: water treatment test on common mosquito larvae; conditions: concentration of active ingredient 3.5 ppm in water; last-instar larvae; after one day
[6] = test system: Aphis gossypii; experiment: Test Example 3: spray test on cotton aphids on cucumber; conditions: 500 ppm, first-instar larvae on cucumber, after 6 days
[7] = test system: Spodoptela litura; experiment: Test Example 1: artificial diet test on tobacco cutworm larvae; conditions: 500 ppm, fourth-instar larvae, after 6 days

For Clc1ccccc1SC(C=CSc1ccccc1)=Nc1ccccc1 [(4), 2-Chlorophenyl N-phenyl-3-(phenylthio)thioacrylimidate], the “index number (mortality)” value [1] was 4 (mortality 100%), the “index number (mortality)” value [2] was 3 (mortality 80 to 99%) and the “index number (mortality)” value [3] was 3 (mortality 70 to 99%). For the same molecule, the “index number (mortality)” value [4] was 3 (mortality 80 to 99%), the “index number (mortality)” value [5] was 4 (mortality 91 to 100%) and the “index number (surviving rate based on untreated check)” value [6] was 3 (surviving rate 1 to 10%). The “index number (mortality)” value [7] was 3 (mortality 80 to 99%).

With C(=CC(=Nc1ccccc1)Sc1ccncc1)Sc1ccccc1 [(10), 4-Pyridyl N-phenyl-3-(phenylthio)thioacrylimidate] the “index number (mortality)” value [1] was 4 (mortality 100%), the “index number (mortality)” value [2] was 3 (mortality 80 to 99%) and the “index number (mortality)” value [3] was 3 (mortality 70 to 99%). The “index number (mortality)” value [4] was 3 (mortality 80 to 99%), the “index number (mortality)” value [5] was 4 (mortality 91 to 100%) and the “index number (surviving rate based on untreated check)” value [6] was 3 (surviving rate 1 to 10%). For the same molecule, the “index number (mortality)” value [7] was 3 (mortality 80 to 99%).

For Clc1ccc(CSC=CC(=Nc2ccccc2)SCc2ccc(Cl)cc2)cc1 [(13), 4-Chlorobenzyl N-phenyl-3-(4-chlorobenzylthio)thioacrylimidate], the “index number (mortality)” value [1] was 4 (mortality 100%), the “index number (mortality)” value [2] was 3 (mortality 80 to 99%) and the “index number (mortality)” value [3] was 3 (mortality 70 to 99%). The “index number (mortality)” value [4] was 3 (mortality 80 to 99%), the “index number (mortality)” value [5] was 4 (mortality 91 to 100%) and the “index number (mortality)” value [7] was 3 (mortality 80 to 99%).

For Cc1ccc(N=C(C=COc2ccccc2)Oc2ccccc2)cc1C [(70), Phenyl N-(3,4-dimethylphenyl)-3-(phenoxy)acrylimidate], the “index number (mortality)” value [2] was 3 (mortality 80 to 99%), the “index number (mortality)” value [3] was 3 (mortality 70 to 99%) and the “index number (mortality)” value [4] was 3 (mortality 80 to 99%). For the same molecule, the “index number (mortality)” value [5] was 4 (mortality 91 to 100%), the “index number (surviving rate based on untreated check)” value [6] was 3 (surviving rate 1 to 10%) and the “index number (mortality)” value [7] was 3 (mortality 80 to 99%).

In the case of CC(C)c1ccc(N=C(C=CSc2ccccc2)Oc2ccccc2)cc1 [(72), Phenyl N-[4-(1-methylethyl)phenyl]-3-(phenylthio)acrylimidate], the “index number (mortality)” value [1] is reported as 4 (mortality 100%), the “index number (mortality)” value [2] is reported as 3 (mortality 80 to 99%) and the “index number (mortality)” value [3] is reported as 3 (mortality 70 to 99%). For the same molecule, the “index number (mortality)” value [4] was 3 (mortality 80 to 99%), the “index number (mortality)” value [5] was 4 (mortality 91 to 100%) and the “index number (mortality)” value [7] was 3 (mortality 80 to 99%).

Brc1ccc(SC=CC(=Nc2ccccc2)Oc2ccccc2)cc1 [(102), Phenyl 3-(4-bromophenylthio)-N-phenylacrylimidate] was tested, and the “index number (mortality)” value [1] was 4 (mortality 100%), the “index number (mortality)” value [2] was 3 (mortality 80 to 99%) and the “index number (mortality)” value [3] was 3 (mortality 70 to 99%). For the same molecule, the “index number (mortality)” value [4] was 3 (mortality 80 to 99%), the “index number (mortality)” value [5] was 4 (mortality 91 to 100%) and the “index number (mortality)” value [7] was 3 (mortality 80 to 99%).

In the case of COc1cccc(SC=CC(=Nc2ccccc2)Oc2ccccc2)c1 [(107), Phenyl 3-(3-methoxyphenylthio)-N-phenylacrylimidate], the “index number (mortality)” value [1] is reported as 4 (mortality 100%), the “index number (mortality)” value [2] is reported as 3 (mortality 80 to 99%) and the “index number (mortality)” value [4] is reported as 3 (mortality 80 to 99%). The “index number (mortality)” value [5] was 4 (mortality 91 to 100%) and the “index number (mortality)” value [7] was 3 (mortality 80 to 99%).

O=[N+]([O-])c1ccc(SC=CC(=Nc2ccccc2)Oc2ccccc2)cc1 [(108), Phenyl 3-(4-nitrophenylthio)-N-phenylacrylimidate] was tested, and the “index number (mortality)” value [1] was 4 (mortality 100%), the “index number (mortality)” value [2] was 3 (mortality 80 to 99%) and the “index number (mortality)” value [3] was 3 (mortality 70 to 99%). For the same molecule, the “index number (mortality)” value [4] was 3 (mortality 80 to 99%), the “index number (mortality)” value [5] was 4 (mortality 91 to 100%) and the “index number (mortality)” value [7] was 3 (mortality 80 to 99%).

With Cc1ccc(SC=CC(=Nc2ccccc2)Oc2ccccc2)cc1 [(118), Phenyl 3-(4-methylphenylthio)-N-phenylacrylimidate] the “index number (mortality)” value [2] was 3 (mortality 80 to 99%), the “index number (mortality)” value [3] was 3 (mortality 70 to 99%) and the “index number (mortality)” value [4] was 3 (mortality 80 to 99%). For the same molecule, the “index number (mortality)” value [5] was 4 (mortality 91 to 100%), the “index number (surviving rate based on untreated check)” value [6] was 3 (surviving rate 1 to 10%) and the “index number (mortality)” value [7] was 3 (mortality 80 to 99%).

With Cc1ccc(SC=CC(=Nc2ccccc2)Oc2ccccc2)c(C)c1 [(119), Phenyl 3-(2,4-dimethylphenylthio)-N-phenylacrylimidate] the “index number (mortality)” value [2] was 3 (mortality 80 to 99%), the “index number (mortality)” value [3] was 3 (mortality 70 to 99%) and the “index number (mortality)” value [4] was 3 (mortality 80 to 99%). For the same molecule, the “index number (mortality)” value [5] was 4 (mortality 91 to 100%), the “index number (surviving rate based on untreated check)” value [6] was 3 (surviving rate 1 to 10%) and the “index number (mortality)” value [7] was 3 (mortality 80 to 99%).

With COc1ccc(SC=CC(=Nc2ccccc2)Oc2ccccc2)cc1 [(146), Phenyl 3-(4-methoxyphenylthio)-N-phenylacrylimidate] the “index number (mortality)” value [1] was 4 (mortality 100%), the “index number (mortality)” value [2] was 3 (mortality 80 to 99%) and the “index number (mortality)” value [3] was 3 (mortality 70 to 99%). For the same molecule, the “index number (mortality)” value [4] was 3 (mortality 80 to 99%), the “index number (mortality)” value [5] was 4 (mortality 91 to 100%) and the “index number (mortality)” value [7] was 3 (mortality 80 to 99%).

With Fc1ccc(SC=CC(=Nc2ccccc2)SCc2ccccc2)cc1 [(166), Benzyl 3-(4-fluorophenylthio)-N-(phenyl)thioacrylimidate] the “index number (mortality)” value [1] was 4 (mortality 100%), the “index number (mortality)” value [2] was 3 (mortality 80 to 99%) and the “index number (mortality)” value [3] was 3 (mortality 70 to 99%). The “index number (mortality)” value [4] was 3 (mortality 80 to 99%), the “index number (mortality)” value [5] was 4 (mortality 91 to 100%) and the “index number (mortality)” value [7] was 3 (mortality 80 to 99%).

For C(=CC(=Nc1ccc(Oc2ccccc2)cc1)Oc1ccccc1)Sc1ccccc1 [(180), Phenyl N-(4-phenoxyphenyl)-3-(phenylthio)acrylimidate], the “index number (mortality)” value [1] was 4 (mortality 100%), the “index number (mortality)” value [5] was 4 (mortality 91 to 100%) and the “index number (surviving rate based on untreated check)” value [6] was 3 (surviving rate 1 to 10%). For the same molecule, the “index number (mortality)” value [7] was 3 (mortality 80 to 99%).

With C(=CC(=Nc1ccc(Cc2ccccc2)cc1)Oc1ccccc1)Oc1ccccc1 [(204), Phenyl N-(4-benzylphenyl)-3-phenoxyacrylimidate] the “index number (mortality)” value [1] was 4 (mortality 100%).

For Cc1ccc(N=C(C=CSc2ccccc2)Sc2ccc(C(C)C)cc2)cc1 [(259), 4-(1-Methylethyl)phenyl N-(4-methylphenyl)-3-(phenylthio)thioacrylimidate], the “index number (mortality)” value [3] was 3 (mortality 70 to 99%) and the “index number (surviving rate based on untreated check)” value [6] was 3 (surviving rate 1 to 10%).

In the case of Cc1cccc(OC(C=CSCc2ccccc2)=Nc2ccc(C)c(C)c2)c1 [(274), 3-Methylphenyl N-(3,4-dimethylphenyl)-3-(benzylthio)acrylimidate], the “index number (mortality)” value [1] is reported as 4 (mortality 100%).

With Cc1cccc(OC=CC(=Nc2ccc(C)c(C)c2)Oc2cccc(C)c2)c1 [(293), 3-Methylphenyl N-(3,4-dimethylphenyl)-3-(3-methylphenoxy)acrylimidate] the “index number (mortality)” value [1] was 4 (mortality 100%).

With COc1cccc(OC=CC(=Nc2ccc(C)c(C)c2)Oc2cccc(C)c2)c1 [(295), 3-Methylphenyl N-(3,4-dimethylphenyl)-3-(3-methoxyphenoxy)acrylimidate] the “index number (mortality)” value [1] was 4 (mortality 100%).

In the case of Cc1cccc(OC(C=COc2cccc(C(F)(F)F)c2)=Nc2ccc(C)c(C)c2)c1 [(297), 3-Methylphenyl N-(3,4-dimethylphenyl)-3-(3-trifluoromethylphenoxy)acrylimidate], the “index number (mortality)” value [1] is reported as 4 (mortality 100%).

Cc1ccc(N=C(C=CSc2ncccn2)SCC(C)C)cc1 [(454), Isobutyl N-(4-methylphenyl)-3-(2-pyrimidinylthio)thioacrylimidate] was tested, and the “index number (mortality)” value [1] was 4 (mortality 100%) and the “index number (mortality)” value [2] was 3 (mortality 80 to 99%).

For Cc1ccc(N=C(C=CSCc2ccccc2)SCC(C)C)cc1 [(456), Isobutyl 3-(benzylthio)-N-(4-methylphenyl)thioacrylimidate], the “index number (mortality)” value [1] was 4 (mortality 100%).

Cc1ccc(N=C(C=CSCc2ccc(Cl)cc2)SCC(C)C)cc1 [(462), Isobutyl 3-(4-chlorobenzylthio)-N-(4-methylphenyl)thioacrylimidate] was tested, and the “index number (mortality)” value [1] was 4 (mortality 100%), the “index number (mortality)” value [2] was 3 (mortality 80 to 99%) and the “index number (mortality)” value [4] was 3 (mortality 80 to 99%).

For COc1ccc(CSC=CC(=Nc2ccc(C)cc2)SCC(C)C)cc1 [(467), Isobutyl 3-(4-methoxybenzylthio)-N-(4-methylphenyl)thioacrylimidate], the “index number (mortality)” value [1] was 4 (mortality 100%).

In the case of Cc1ccc(N=C(C=CSc2ccccc2)Sc2nccn2C)cc1 [(495), 1-Methyl-1H-imidazole-2-yl N-(4-methylphenyl)-3-(phenylthio)thioacrylimidate], the “index number (mortality)” value [1] is reported as 4 (mortality 100%).

In the case of Cc1cccc(OC(C=CSc2ccoc2C)=Nc2ccc(C)c(C)c2)c1 [(498), 3-Methylphenyl N-(3,4-dimethylphenyl)-3-(2-methylfurane-3-ylthio)acrylimidate], the “index number (mortality)” value [3] is reported as 3 (mortality 70 to 99%) and the “index number (surviving rate based on untreated check)” value [6] is reported as 3 (surviving rate 1 to 10%).

With Cc1ccc(N=C(C=CSc2ccccc2)Sc2nccc(C(F)(F)F)n2)cc1 [(502), 4-Trifluoromethylpyrimidine-2-yl N-(4-methylphenyl)-3-(phenylthio)thioacrylimidate] the “index number (mortality)” value [1] was 4 (mortality 100%), the “index number (mortality)” value [5] was 4 (mortality 91 to 100%) and the “index number (surviving rate based on untreated check)” value [6] was 3 (surviving rate 1 to 10%).
